Assay results from patent US9527066B2, “Dihydroxybipyridine complexes of ruthenium and iridium for water oxidation and hydrogenation” (The Board of Trustees of The University of Alabama, priority 2011, dated 2016).
Where two headings read alike, the source gives them in different places.

Question: With `Cc1c(C)c(C)[c-](C)c1C.Oc1cccc(-c2cccc(O)n2)n1.[Cl-].[Cl][Ir+2]` [[Cp*IrCl(6,6′-DHBP)]Cl, [Cp*Ir(6,6′-DHBP)Cl]Cl] as the compound, how does the “O2 formation [mass = 32], % TIC” value (20 minutes, 0.10 M (NH4)2Ce(NO3)6 plus 34 μM catalyst stock) read?
Answer: 2.42 % TIC

Question: What about the “O2 formation [mass = 32], % TIC” value (40 minutes) of the same compound?
Answer: 3.35 % TIC

Question: What about the “O2 formation [mass = 32], % TIC” value (60 minutes) of the same compound?
Answer: 3.81 % TIC

Question: And the “O2 formation [mass = 32], % TIC” value (80 minutes)?
Answer: 3.55 % TIC

Question: What about the “O2 formation [mass = 32], % TIC” value (100 minutes) of the same compound?
Answer: 3.63 % TIC

Question: And the “O2 formation [mass = 32], % TIC” value (120 minutes)?
Answer: 3.49 % TIC

Question: What about the “increase of % TIC accounting for O2 formation” value (over the course of 60 minutes) of the same compound?
Answer: 3.3 % TIC
